Source: article PMC12339401
No constants are given. Whether binding was seen depends on the method and setting. For some of these results: Binding seen in cells or lysates may run through a third protein. Some entries that bind do so weakly or less than the wild type. For some of these results: Sequences can lack the tags named with a protein. Each block holds one binder with its values, some of them ahead of it.

Amino acid sequences for entries named in this document (tags omitted). A change or cut given only in a name is not applied to a line headed by its entry. Residues count along the entry.
UniProt Q9Y6I9: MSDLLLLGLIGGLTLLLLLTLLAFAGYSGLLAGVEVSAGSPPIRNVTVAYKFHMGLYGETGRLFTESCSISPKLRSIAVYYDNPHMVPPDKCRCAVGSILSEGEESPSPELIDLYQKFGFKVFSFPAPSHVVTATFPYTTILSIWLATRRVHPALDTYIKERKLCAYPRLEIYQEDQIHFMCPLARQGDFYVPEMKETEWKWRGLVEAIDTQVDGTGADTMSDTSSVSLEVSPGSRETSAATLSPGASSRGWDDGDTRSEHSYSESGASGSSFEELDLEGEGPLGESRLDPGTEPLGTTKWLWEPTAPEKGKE
UniProt O60238: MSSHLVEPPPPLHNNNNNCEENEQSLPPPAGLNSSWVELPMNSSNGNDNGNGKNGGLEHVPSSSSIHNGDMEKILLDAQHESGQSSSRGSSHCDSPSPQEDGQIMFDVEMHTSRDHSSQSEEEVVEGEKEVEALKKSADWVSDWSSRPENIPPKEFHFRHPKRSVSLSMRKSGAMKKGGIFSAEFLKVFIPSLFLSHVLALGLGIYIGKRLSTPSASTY
NIX(1–182)-GST: residues 1-182 of O60238

Legend:
TEX264-GFP (human) = TEX264-GFP (human) (UniProt Q9Y6I9); experiment: co-IP; TEX264-GFP transiently expressed in HeLa cells, 6 h EBSS starvation; GFP-Trap agarose beads, overnight; immunoblot for WIPI2
V5-NIX (human) = V5-NIX (human) (UniProt O60238); experiment: co-IP; V5-NIX in BNIP3/NIX double-knockout HeLa cells, where indicated treated with DFP; anti-V5 agarose beads, overnight; immunoblot for WIPI2
NIX(1–182)-GST (human) [1] = target: NIX(1–182)-GST (human) (UniProt O60238); experiment: pull-down; beads precoated with GST, NIX-GST or BNIP3-GST, incubated overnight with HeLa cell lysate, SDS–PAGE and western blot for WIPI proteins; only the target purified
NIX(1–182)-GST (human) [2] = target: NIX(1–182)-GST (human) (UniProt O60238); experiment: microscopy-based bead assay; GST-tagged bait on Glutathione Sepharose 4B beads, GFP- or mCherry-tagged prey in solution, confocal imaging; both purified

binding (TEX264-GFP (human)): binds
binding (V5-NIX (human)): binds
binding (NIX(1–182)-GST (human) [1]): binds
B1: WIPI2 (endogenous) (protein, UniProt Q9Y4P8 1-454)
chain: MNLASQSGEAGAGQLLFANFNQDNTEVKGASRAAGLGRRAVVWSLAVGSKSGYKFFSLSSVDKLEQIYECTDTEDVCIVERLFSSSLVAIVSLKAPRKLKVCHFKKGTEICNYSYSNTILAVKLNRQRLIVCLEESLYIHNIRDMKVLHTIRETPPNPAGLCALSINNDNCYLAYPGSATIGEVQVFDTINLRAANMIPAHDSPLAALAFDASGTKLATASEKGTVIRVFSIPEGQKLFEFRRGVKRCVSICSLAFSMDGMFLSASSNTETVHIFKLETVKEKPPEEPTTWTGYFGKVLMASTSYLPSQVTEMFNQGRAFATVRLPFCGHKNICSLATIQKIPRLLVGAADGYLYMYNLDPQEGGECALMKQHRLDGSLETTNEILDSASHDCPLVTQTYGAAAGKGTYVPSSPTRLAYTDDLGAVGGACLEDEASALRLDEDSEHPPMILRTD

binding (NIX(1–182)-GST (human) [2]): no binding
B2: GFP-tagged TBK1 (enzyme, UniProt Q9UHD2 1-729)
chain: MQSTSNHLWLLSDILGQGATANVFRGRHKKTGDLFAIKVFNNISFLRPVDVQMREFEVLKKLNHKNIVKLFAIEEETTTRHKVLIMEFCPCGSLYTVLEEPSNAYGLPESEFLIVLRDVVGGMNHLRENGIVHRDIKPGNIMRVIGEDGQSVYKLTDFGAARELEDDEQFVSLYGTEEYLHPDMYERAVLRKDHQKKYGATVDLWSIGVTFYHAATGSLPFRPFEGPRRNKEVMYKIITGKPSGAISGVQKAENGPIDWSGDMPVSCSLSRGLQVLLTPVLANILEADQEKCWGFDQFFAETSDILHRMVIHVFSLQQMTAHKIYIHSYNTATIFHELVYKQTKIISSNQELIYEGRRLVLEPGRLAQHFPKTTEENPIFVVSREPLNTIGLIYEKISLPKVHPRYDLDGDASMAKAITGVVCYACRIASTLLLYQELMRKGIRWLIELIKDDYNETVHKKTEVVITLDFCIRNIEKTVKVYEKLMKINLEAAELGEISDIHTKLLRLSSSQGTIETSLQDIDSRLSPGGSLADAWAHQEGTHPKDRNVEKLQVLLNCMTEIYYQFKKDKAERRLAYNEEQIHKFDKQKLYYHATKAMTHFTDECVKKYEAFLNKSEEWIRKMLHLRKQLLSLTNQCFDIEEEVSKYQEYTNELQETLPQKMFTASSGIKHTMTPIYPSSNTLVEMTLGMKKLKEEMEGVVKELAENNHILERFGSLTMDGGLRNVDCL
